Source: the supplement of paper PMC12067093, “Discovery and optimisation of a covalent ligand for TRIM25 and its application to targeted protein ubiquitination” (Chemical Science, 2025)
The other results are listed elsewhere or left out.

Amino acid sequences for entries named in this document (tags omitted). A change or cut given only in a name is not applied to a line headed by its entry.
UniProt Q70J99: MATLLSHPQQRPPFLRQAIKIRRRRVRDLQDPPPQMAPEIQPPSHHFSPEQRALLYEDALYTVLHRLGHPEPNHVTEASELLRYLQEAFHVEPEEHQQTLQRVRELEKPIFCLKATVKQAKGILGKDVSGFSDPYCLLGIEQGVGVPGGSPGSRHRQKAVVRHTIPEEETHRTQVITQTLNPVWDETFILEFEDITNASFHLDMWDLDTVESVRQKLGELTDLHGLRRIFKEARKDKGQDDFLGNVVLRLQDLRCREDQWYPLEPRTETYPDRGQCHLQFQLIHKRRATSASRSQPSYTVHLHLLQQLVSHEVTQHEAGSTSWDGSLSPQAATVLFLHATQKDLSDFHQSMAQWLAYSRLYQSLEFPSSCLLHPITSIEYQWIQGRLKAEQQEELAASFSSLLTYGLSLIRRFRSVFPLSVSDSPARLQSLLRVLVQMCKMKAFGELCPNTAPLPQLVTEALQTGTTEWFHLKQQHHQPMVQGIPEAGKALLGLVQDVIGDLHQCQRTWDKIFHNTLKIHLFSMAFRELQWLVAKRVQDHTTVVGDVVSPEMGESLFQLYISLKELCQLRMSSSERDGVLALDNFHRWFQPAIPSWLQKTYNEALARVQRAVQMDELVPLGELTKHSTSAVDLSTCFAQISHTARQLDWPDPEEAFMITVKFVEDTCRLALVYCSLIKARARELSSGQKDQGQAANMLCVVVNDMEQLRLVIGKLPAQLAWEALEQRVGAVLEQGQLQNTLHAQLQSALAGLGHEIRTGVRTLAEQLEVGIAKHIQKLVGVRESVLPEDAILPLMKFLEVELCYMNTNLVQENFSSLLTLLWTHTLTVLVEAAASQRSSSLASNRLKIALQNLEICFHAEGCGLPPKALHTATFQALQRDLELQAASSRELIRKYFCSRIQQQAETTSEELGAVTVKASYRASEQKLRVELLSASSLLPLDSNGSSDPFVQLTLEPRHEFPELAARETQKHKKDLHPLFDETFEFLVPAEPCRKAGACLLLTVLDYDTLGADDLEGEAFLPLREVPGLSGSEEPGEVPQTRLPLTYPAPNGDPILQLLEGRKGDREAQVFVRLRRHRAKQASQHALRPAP
UniProt P31930: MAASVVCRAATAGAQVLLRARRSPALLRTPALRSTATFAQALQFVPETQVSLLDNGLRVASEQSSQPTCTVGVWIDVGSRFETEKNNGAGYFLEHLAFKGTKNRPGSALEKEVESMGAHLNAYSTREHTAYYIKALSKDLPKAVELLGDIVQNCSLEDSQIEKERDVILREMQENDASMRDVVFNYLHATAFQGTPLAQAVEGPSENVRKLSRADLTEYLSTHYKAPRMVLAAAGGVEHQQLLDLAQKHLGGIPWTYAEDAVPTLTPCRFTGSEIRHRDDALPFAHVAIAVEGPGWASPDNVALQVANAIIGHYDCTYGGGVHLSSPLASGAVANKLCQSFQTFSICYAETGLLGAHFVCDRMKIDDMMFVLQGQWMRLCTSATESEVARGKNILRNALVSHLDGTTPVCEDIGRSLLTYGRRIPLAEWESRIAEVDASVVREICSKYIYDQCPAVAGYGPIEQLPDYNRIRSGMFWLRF
UniProt Q9Y3C8: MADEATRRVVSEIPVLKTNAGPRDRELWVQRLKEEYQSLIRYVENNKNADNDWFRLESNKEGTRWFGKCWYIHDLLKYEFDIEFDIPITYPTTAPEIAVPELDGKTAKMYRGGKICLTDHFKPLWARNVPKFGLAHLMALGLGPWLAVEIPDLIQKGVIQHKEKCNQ
UniProt O60701: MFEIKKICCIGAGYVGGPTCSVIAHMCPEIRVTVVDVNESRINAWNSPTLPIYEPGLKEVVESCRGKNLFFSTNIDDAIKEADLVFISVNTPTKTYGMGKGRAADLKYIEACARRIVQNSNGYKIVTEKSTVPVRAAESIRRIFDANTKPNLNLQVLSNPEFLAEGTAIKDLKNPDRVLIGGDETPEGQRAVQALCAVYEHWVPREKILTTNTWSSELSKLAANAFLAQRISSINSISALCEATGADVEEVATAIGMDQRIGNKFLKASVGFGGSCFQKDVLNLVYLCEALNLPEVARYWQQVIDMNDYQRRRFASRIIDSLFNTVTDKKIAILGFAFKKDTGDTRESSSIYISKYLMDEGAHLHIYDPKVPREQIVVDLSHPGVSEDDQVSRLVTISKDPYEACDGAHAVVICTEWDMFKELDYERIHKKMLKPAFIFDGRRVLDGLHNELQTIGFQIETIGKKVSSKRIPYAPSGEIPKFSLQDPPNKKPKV
UniProt P06132: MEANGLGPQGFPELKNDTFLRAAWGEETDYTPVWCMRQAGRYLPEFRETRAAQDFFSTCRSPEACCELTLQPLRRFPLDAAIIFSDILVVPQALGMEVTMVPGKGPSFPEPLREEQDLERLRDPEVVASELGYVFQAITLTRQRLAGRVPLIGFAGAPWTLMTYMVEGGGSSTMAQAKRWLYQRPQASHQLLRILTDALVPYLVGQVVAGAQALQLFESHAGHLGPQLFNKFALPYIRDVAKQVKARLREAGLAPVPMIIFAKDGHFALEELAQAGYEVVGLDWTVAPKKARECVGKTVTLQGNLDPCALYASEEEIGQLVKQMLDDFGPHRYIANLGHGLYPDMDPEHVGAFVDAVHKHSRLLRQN
UniProt P07919: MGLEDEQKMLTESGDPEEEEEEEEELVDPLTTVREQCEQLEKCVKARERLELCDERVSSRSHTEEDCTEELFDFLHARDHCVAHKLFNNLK
UniProt O94966: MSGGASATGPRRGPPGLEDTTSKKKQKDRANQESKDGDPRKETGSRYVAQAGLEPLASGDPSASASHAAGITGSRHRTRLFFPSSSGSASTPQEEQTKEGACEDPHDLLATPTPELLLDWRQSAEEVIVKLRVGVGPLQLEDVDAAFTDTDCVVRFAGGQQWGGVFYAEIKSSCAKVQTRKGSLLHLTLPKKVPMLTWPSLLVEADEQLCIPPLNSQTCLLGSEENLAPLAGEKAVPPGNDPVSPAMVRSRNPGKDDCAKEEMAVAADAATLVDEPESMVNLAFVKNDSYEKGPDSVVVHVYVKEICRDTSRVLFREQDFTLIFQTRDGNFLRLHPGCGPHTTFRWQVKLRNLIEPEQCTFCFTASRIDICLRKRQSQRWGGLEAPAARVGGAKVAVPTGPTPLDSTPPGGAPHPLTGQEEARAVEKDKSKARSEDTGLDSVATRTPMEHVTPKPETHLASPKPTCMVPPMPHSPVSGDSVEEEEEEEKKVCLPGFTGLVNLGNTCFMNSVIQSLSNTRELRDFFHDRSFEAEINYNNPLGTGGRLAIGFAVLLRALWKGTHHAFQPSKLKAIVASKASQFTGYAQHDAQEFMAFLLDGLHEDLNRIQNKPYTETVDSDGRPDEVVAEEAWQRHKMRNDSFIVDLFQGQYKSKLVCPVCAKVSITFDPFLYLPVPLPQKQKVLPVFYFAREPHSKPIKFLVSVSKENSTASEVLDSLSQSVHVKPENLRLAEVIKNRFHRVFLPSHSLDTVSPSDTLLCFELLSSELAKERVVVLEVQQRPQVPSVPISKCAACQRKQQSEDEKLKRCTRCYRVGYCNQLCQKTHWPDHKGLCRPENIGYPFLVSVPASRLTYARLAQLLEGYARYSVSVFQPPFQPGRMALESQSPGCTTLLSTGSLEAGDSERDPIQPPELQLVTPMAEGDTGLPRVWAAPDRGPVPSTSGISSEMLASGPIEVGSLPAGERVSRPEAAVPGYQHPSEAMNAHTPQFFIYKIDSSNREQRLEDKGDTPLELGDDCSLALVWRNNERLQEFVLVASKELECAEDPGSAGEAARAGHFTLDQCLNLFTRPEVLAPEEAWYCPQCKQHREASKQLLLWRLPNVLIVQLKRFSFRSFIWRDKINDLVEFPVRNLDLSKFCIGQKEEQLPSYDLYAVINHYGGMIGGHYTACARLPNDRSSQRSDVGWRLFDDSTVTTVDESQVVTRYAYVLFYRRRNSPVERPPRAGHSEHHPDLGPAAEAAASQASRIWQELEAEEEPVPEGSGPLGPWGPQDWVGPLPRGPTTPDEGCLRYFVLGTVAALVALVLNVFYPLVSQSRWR
UniProt Q16851: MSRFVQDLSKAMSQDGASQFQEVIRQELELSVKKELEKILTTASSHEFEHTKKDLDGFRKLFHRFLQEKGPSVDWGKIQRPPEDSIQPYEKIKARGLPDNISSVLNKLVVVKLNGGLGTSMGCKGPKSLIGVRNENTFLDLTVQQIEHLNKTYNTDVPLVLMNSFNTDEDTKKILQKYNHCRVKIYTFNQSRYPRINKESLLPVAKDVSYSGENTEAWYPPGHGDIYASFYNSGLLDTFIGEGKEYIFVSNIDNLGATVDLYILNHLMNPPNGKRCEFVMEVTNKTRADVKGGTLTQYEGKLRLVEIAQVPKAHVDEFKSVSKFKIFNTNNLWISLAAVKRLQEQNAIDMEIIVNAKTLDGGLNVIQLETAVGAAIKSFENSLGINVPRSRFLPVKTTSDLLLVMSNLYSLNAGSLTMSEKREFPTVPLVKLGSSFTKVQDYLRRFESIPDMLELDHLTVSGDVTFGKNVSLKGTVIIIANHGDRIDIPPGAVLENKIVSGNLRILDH
UniProt Q8N806: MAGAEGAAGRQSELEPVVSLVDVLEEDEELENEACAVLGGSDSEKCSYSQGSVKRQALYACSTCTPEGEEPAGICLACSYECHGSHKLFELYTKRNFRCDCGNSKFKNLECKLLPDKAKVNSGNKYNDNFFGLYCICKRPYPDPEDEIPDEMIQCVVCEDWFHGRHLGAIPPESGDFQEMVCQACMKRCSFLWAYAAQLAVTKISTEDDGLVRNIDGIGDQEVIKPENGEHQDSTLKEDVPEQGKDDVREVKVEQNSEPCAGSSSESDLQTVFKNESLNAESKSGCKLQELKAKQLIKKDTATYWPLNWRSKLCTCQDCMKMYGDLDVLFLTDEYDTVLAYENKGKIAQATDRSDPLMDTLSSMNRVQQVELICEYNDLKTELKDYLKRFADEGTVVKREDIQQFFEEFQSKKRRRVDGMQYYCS
UniProt Q96PU4: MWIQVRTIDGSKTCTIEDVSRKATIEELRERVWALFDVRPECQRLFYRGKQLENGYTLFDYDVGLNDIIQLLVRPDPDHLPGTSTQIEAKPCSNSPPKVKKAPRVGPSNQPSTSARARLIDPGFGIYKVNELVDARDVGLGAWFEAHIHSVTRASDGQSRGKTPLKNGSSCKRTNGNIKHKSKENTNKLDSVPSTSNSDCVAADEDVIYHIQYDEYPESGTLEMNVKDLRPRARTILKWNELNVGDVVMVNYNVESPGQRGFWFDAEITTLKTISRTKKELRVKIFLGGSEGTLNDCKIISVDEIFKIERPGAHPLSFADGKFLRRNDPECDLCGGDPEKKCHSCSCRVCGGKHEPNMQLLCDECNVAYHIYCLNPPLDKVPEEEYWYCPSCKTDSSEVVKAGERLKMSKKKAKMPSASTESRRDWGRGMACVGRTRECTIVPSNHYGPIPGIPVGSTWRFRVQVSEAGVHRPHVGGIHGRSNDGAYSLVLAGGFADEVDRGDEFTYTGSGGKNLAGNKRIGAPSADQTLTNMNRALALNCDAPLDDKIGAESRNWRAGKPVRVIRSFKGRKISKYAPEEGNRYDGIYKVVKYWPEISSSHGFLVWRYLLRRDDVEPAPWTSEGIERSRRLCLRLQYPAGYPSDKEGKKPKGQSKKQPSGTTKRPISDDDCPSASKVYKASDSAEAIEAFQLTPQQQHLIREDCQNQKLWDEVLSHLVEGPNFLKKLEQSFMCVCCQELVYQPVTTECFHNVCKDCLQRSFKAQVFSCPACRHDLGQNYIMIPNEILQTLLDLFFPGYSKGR
UniProt Q9Y6I4: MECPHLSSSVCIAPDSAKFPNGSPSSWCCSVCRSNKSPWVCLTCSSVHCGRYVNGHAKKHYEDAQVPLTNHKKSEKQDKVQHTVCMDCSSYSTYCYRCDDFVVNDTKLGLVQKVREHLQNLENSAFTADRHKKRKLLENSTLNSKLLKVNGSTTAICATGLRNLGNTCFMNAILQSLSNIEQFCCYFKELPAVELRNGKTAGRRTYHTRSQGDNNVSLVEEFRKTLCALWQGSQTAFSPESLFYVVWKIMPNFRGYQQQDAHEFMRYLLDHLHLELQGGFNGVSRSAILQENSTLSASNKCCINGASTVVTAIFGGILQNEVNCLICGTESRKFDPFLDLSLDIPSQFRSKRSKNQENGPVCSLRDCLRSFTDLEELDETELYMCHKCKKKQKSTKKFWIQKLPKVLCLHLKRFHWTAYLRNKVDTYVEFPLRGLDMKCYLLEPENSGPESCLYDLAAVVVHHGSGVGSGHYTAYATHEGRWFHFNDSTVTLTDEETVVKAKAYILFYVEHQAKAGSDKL
UniProt P10746: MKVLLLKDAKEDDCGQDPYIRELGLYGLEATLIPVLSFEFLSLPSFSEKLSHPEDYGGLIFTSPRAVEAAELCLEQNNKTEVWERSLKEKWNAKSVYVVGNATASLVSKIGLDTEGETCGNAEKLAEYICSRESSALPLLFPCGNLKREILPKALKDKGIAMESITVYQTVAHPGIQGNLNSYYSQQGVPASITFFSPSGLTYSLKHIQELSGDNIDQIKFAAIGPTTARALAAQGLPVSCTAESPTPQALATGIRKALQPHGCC

compound: Cc1cc(ccc1-c1ccccc1)C(=O)N1CCCN(CC1)C(=O)CCl [compound 10]; assay: probe-labelled cysteine peptide fold change vs DMSO (competition) (log2 fold change); higher = less target engagement (more negative = stronger competition); details: 10 µM; THP-1; incubation time: 4 h
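Also: competitive profiling in live THP-1 cells: cysteine peptides tagged with an iodoacetamide desthiobiotin (IA-DTB) probe, intensity after compound treatment relative to DMSO-treated cells.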

Target	probe-labelled cysteine peptide fold change
UNC45A_Q9H3U1_118_CVSLEPK (UniProt Q9H3U1)	0.296
USP15_Q9Y4E8_791_DCIELFTTK (UniProt Q9Y4E8)	-0.131
UNC13D_Q70J99_505_ALLGLVQDVIGDLHQCQR (UniProt Q70J99)	0.245
UQCRC1_P31930_268_HLGGIPWTYAEDAVPTLTPCR (UniProt P31930)	-0.173
UBXN7_O94888_38_HMLEACNNNLEMAVTMFLDGGGIAEEPSTSSASVSTVRPHTEEEVR (UniProt O94888)	0.519
UFC1_Q9Y3C8_116_ICLTDHFK (UniProt Q9Y3C8)	-0.173
USO1_O60763_383_CAVLYCFQCFLYK (UniProt O60763)	-0.161
UGDH_O60701_9+20_ICCIGAGYVGGPTCSVIAHMCPEIR (UniProt O60701)	0.0362
UROD_P06132_308_TVTLQGNLDPCALYASEEEIGQLVK (UniProt P06132)	-0.0737
UQCRH_P07919_67_SHTEEDCTEELFDFLHAR (UniProt P07919)	-0.361
UIMC1_Q96RL1_298_VILCQLEVYQK (UniProt Q96RL1)	-0.00784
USP19_O94966_258_NPGKDDCAK (UniProt O94966)	-0.107
UGDH_O60701_8+9+20_KICCIGAGYVGGPTCSVIAHMCPEIR (UniProt O60701)	0.0679
UGP2_Q16851_276_CEFVMEVTNK (UniProt Q16851)	-0.0908
USP19_O94966_1017_LEDKGDTPLELGDDCSLALVWR (UniProt O94966)	-0.0163
UBXN7_O94888_38_HMLEACNNNLEMAVTMFLDGGGIAEEPSTSSASVSTVRPHTEEEVRAPIPQK (UniProt O94888)	-0.0495
UPF2_Q9HAU5_990_LCNSLEESIR (UniProt Q9HAU5)	-0.00764
USP47_Q96K76_656_MMDLEEVIPLDCCR (UniProt Q96K76)	-0.201
UGDH_O60701_20_ICCIGAGYVGGPTCSVIAHMCPEIR (UniProt O60701)	0.138

A different layout for some results above:
UGP2_Q16851_276_CEFVMEVTNK (UniProt Q16851)
  probe-labelled cysteine peptide fold change: -0.0908
USP19_O94966_1017_LEDKGDTPLELGDDCSLALVWR (UniProt O94966)
  probe-labelled cysteine peptide fold change: -0.0163

Later entries.

Target	probe-labelled cysteine peptide fold change
UNC119B_A6NIH7_85_VTENYLCKPEDNIYSIDFTR (UniProt A6NIH7)	-0.113
UBR7_Q8N806_319_LCTCQDCMK (UniProt Q8N806)	-0.139
UHRF2_Q96PU4_297_IFLGGSEGTLNDCK (UniProt Q96PU4)	0.179
USP3_Q9Y6I4_49_SPWVCLTCSSVHCGR (UniProt Q9Y6I4)	-0.0125
UPF1_Q92900_675_QLILVGDHCQLGPVVMCK (UniProt Q92900)	-0.0215
UCHL5_Q9Y5K5_9_TGNAGEWCLMESDPGVFTELIK (UniProt Q9Y5K5)	-0.209
UGGT1_Q9NYU2_159_TCESDTLEALLLTASERPKPLLFK (UniProt Q9NYU2)	-0.247
UGDH_O60701_288_DVLNLVYLCEALNLPEVAR (UniProt O60701)	0.369
UPF3B_Q9BZI7_453_LCPPDDSTK (UniProt Q9BZI7)	0.074
USP19_O94966_102_EGACEDPHDLLATPTPELLLDWR (UniProt O94966)	-0.326
USP37_Q86T82_538_AEELEYSCEK (UniProt Q86T82)	0.0939
UBR7_Q8N806_46_CSYSQGSVKR (UniProt Q8N806)	-0.118
UBTD2_Q8WUN7_122_YQLPVYCLAPPINMIEEK (UniProt Q8WUN7)	0.0555
UNC119_Q13432_190_NTCEHIYDFPPLSEELISEMIR (UniProt Q13432)	-0.236
UHRF1BP1L_A0JNW5_618_HCPNCR (UniProt A0JNW5)	-0.292
UROS_P10746_119_IGLDTEGETCGNAEK (UniProt P10746)	-0.0553
USP34_Q70CQ2_1330_KGEGVQLPASCLPPPQK (UniProt Q70CQ2)	-0.079
USP14_P54578_415_YEPFSFADDIGSNNCGYYDLQAVLTHQGR (UniProt P54578)	-0.0713
